PubChem BioAssay AID1508588, Peter MacCallum Cancer Centre, 2020

Aim: 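Knock-downs boosting vemurafenib effects on melanoma cell growth or lactate release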 (primary screen)
System: human WM266.4 melanoma cells (BRAF V600 mutant)
Reagents: siRNA pool against human genes, 40 nM
Time to read-out: 96 h from transfection to read-out
Conditions: vemurafenib 300 nM (about IC25), added 48 h after transfection, for 48 h; comparison arm got DMSO vehicle only
Detection: 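Ratios to non-targeting siRNA for cell gain, counted as DAPI nuclei after minus before drug and averaged over two replicates, and for absorbance-read medium lactate per cell; both binned into fold-change classes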
Reading the numbers: cell gain with vemurafenib: higher = more cell gain than with non-targeting siRNA; lactate per cell with vemurafenib: higher = more lactate made per cell
Call rule: 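a knock-down counts as enhancing when its fold-change classes with vehicle and with vemurafenib, taken together, show a stronger drug effect on cell gain or lactate per cell; exact class pairs not stated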
Meaning of the calls: active = enhances vemurafenib effect; inactive = no enhancement seen
The whole screen tested about 18,000 reagents; shown is an unselected part. 790 of all reagents (4.4%) were called active. 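Calls rest on a combination of fold-change classes in drug and vehicle arms, not all shown here.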 Reagents against one gene are numbered here.

The opening 8 records, ahead of the listing:
gene knocked down | pool no. | cell gain with vemurafenib | lactate per cell with vemurafenib | Call
ZNF573 (GeneID 126231) | 1 | 0.32 | 1.46 | inactive
NEIL2 (GeneID 252969) | 1 | 0.48 | 0.94 | inactive
OR10H4 (GeneID 126541) | 1 | -0.14 | 2.75 | inactive
CNKSR2 (GeneID 22866) | 1 | 0.86 | 0.5 | inactive
TXLNGY (GeneID 246126) | 1 | 1.19 | 0.6 | inactive
TXLNGY (GeneID 246126) | 2 | 0.32 | 1.17 | inactive
ANKS3 (GeneID 124401) | 1 | 0.57 | 1.21 | inactive
IRGC (GeneID 56269) | 1 | 1.04 | 0.62 | inactive

Main list, from the first entry:
gene knocked down | pool no. | cell gain with vemurafenib | lactate per cell with vemurafenib | Call
ZNF573 (GeneID 126231) | 1 | 0.32 | 1.46 | inactive
NEIL2 (GeneID 252969) | 1 | 0.48 | 0.94 | inactive
OR10H4 (GeneID 126541) | 1 | -0.14 | 2.75 | inactive
CNKSR2 (GeneID 22866) | 1 | 0.86 | 0.5 | inactive
TXLNGY (GeneID 246126) | 1 | 1.19 | 0.6 | inactive
TXLNGY (GeneID 246126) | 2 | 0.32 | 1.17 | inactive
ANKS3 (GeneID 124401) | 1 | 0.57 | 1.21 | inactive
IRGC (GeneID 56269) | 1 | 1.04 | 0.62 | inactive
DBX1 (GeneID 120237) | 1 | 0.66 | 0.76 | inactive
BCL9L (GeneID 283149) | 1 | 0.26 | 1.02 | inactive
RUSC2 (GeneID 9853) | 1 | 0.02 | 1.22 | inactive
PMS2 (GeneID 5395) | 1 | 0.93 | 0.94 | inactive
LRRC28 (GeneID 123355) | 1 | 0.61 | 1.77 | inactive
PAX7 (GeneID 5081) | 1 | 0.87 | 0.47 | inactive
LPP (GeneID 4026) | 1 | 0.54 | 0.49 | inactive
GUSB (GeneID 2990) | 1 | 1.17 | 0.99 | inactive
WDFY2 (GeneID 115825) | 1 | 0.57 | 1.58 | inactive
TXNDC8 (GeneID 255220) | 1 | 0.8 | 0.48 | inactive
ZNF205 (GeneID 7755) | 1 | 0.75 | 0.79 | inactive
PRSS23 (GeneID 11098) | 1 | 0.79 | 0.83 | inactive
GPATCH1 (GeneID 55094) | 1 | 0.6 | 0.44 | active
AUNIP (GeneID 79000) | 1 | 0.69 | 0.46 | inactive
GJB7 (GeneID 375519) | 1 | 0.25 | 0.72 | inactive
C1orf174 (GeneID 339448) | 1 | 0.66 | 1.08 | inactive
MMP26 (GeneID 56547) | 1 | 0.6 | 0.86 | inactive
CYP2W1 (GeneID 54905) | 1 | 0.41 | 1.75 | inactive
CASP10 (GeneID 843) | 1 | 0.47 | 0.2 | inactive
H2BC18 (GeneID 440689) | 1 | 0.97 | 0.88 | inactive
PRR15 (GeneID 222171) | 1 | 0.02 | 3.85 | inactive
CKAP2L (GeneID 150468) | 1 | 0.98 | 0.7 | inactive
SPI1 (GeneID 6688) | 1 | 0.64 | 0.56 | inactive
RABGGTB (GeneID 5876) | 1 | 0.87 | 1.06 | inactive
FGF4 (GeneID 2249) | 1 | 0.4 | 0.63 | inactive
CFL2 (GeneID 1073) | 1 | 0.62 | 0.53 | inactive
PLCE1 (GeneID 51196) | 1 | 0.6 | 0.78 | inactive
UIMC1 (GeneID 51720) | 1 | 0.56 | 1.13 | inactive
EPHB6 (GeneID 2051) | 1 | 0.67 | 0.8 | inactive
ZNF467 (GeneID 168544) | 1 | 0.64 | 0.92 | inactive
SLC19A2 (GeneID 10560) | 1 | 0.64 | 1.01 | inactive
CCNQ (GeneID 92002) | 1 | 0.46 | 1.29 | inactive
RAB40A (GeneID 142684) | 1 | 0.39 | 0.98 | inactive
SCNN1G (GeneID 6340) | 1 | 1.01 | 0.84 | inactive
UBE2W (GeneID 55284) | 1 | 0.67 | 0.77 | inactive
TAF13 (GeneID 6884) | 1 | 1.05 | 0.41 | inactive
TEX12 (GeneID 56158) | 1 | 0.72 | 0.64 | inactive
QKI (GeneID 9444) | 1 | 0.35 | 1.04 | inactive
RCC1L (GeneID 81554) | 1 | 0 | 0 | inactive
PSMC6 (GeneID 5706) | 1 | -0.1 | 5.62 | inactive
NAV3 (GeneID 89795) | 1 | 1.11 | 0.82 | inactive
PDZD4 (GeneID 57595) | 1 | 1.02 | 0.8 | inactive
KCNIP1 (GeneID 30820) | 1 | 1.27 | 0.77 | inactive
PDE6H (GeneID 5149) | 1 | 0.45 | 1.81 | inactive
C1orf226 (GeneID 400793) | 1 | 0.66 | 0.86 | inactive
HMGCS1 (GeneID 3157) | 1 | 0.34 | 1.77 | inactive
BPTF (GeneID 2186) | 1 | 0.8 | 0.38 | inactive
UBA5 (GeneID 79876) | 1 | 0.82 | 0.54 | inactive
HESX1 (GeneID 8820) | 1 | 1.07 | 0.64 | inactive
LAMTOR2 (GeneID 28956) | 1 | 0.02 | 1.36 | inactive
ZNF107 (GeneID 51427) | 1 | 0.47 | 1.25 | inactive
MALL (GeneID 7851) | 1 | 0.62 | 1.04 | inactive
MRM1 (GeneID 79922) | 1 | 0.54 | 2.05 | inactive
PSMD6 (GeneID 9861) | 1 | -0.06 | 1.77 | inactive
PDX1 (GeneID 3651) | 1 | 0.71 | 1.03 | inactive
TRMT10B (GeneID 158234) | 1 | 0.77 | 1.01 | inactive
ACBD7 (GeneID 414149) | 1 | 0.67 | 0.78 | inactive
SAP130 (GeneID 79595) | 1 | -0.1 | 1.25 | inactive
NKX2-1 (GeneID 7080) | 1 | 0.98 | 1.5 | inactive
ATRAID (GeneID 51374) | 1 | 0.5 | 0.71 | inactive
FKBP3 (GeneID 2287) | 1 | 0.44 | 0.86 | inactive
SBSPON (GeneID 157869) | 1 | 0.38 | 1.21 | inactive
PRCD (GeneID 768206) | 1 | 0.96 | 1.18 | inactive
GLP1R (GeneID 2740) | 1 | 0.81 | 1.05 | inactive
REP15 (GeneID 387849) | 1 | 0.56 | 0.76 | inactive
SOAT2 (GeneID 8435) | 1 | 0.22 | 2.08 | inactive
CXCL16 (GeneID 58191) | 1 | 0.32 | 2.81 | inactive
KLHL35 (GeneID 283212) | 1 | 0.43 | 0.88 | inactive
SLC5A5 (GeneID 6528) | 1 | 0.57 | 0.94 | inactive
FANK1 (GeneID 92565) | 1 | 0.57 | 0.95 | inactive
AFM (GeneID 173) | 1 | 0.49 | 0.49 | active
SYCP3 (GeneID 50511) | 1 | 0.36 | 0.93 | inactive
TMED3 (GeneID 23423) | 1 | 0.07 | 1.13 | inactive
ABHD5 (GeneID 51099) | 1 | 0.42 | 1.04 | inactive
CENPF (GeneID 1063) | 1 | 0.78 | 1.01 | inactive
MEIOB (GeneID 254528) | 1 | 0.64 | 0.86 | inactive
